Experimental data published in paper PMC5927464 (2018).
Results are given in words; binding and its absence hold for the method and conditions named. For some of these results: Binding seen in cells or lysates may run through a third protein. For some of these results: Binding calls can cover weak binding; strength is not graded here. For some of these results: Where a sequence is shown, tags or fusion partners need not be part of it.

B1: Flag-HuRNase L—mouse 1–58 (enzyme, UniProt Q05921 1-58; Q05823 59-741)
chain: METPDYNTPQGGTPSAGSQRTVVEDDSSLIKAVQKGDVVRVQQLLEKGADANACEDTWGWTPLHNAVQMSREDIVELLLRHGADPVLRKKNGATPFILAAIAGSVKLLKLFLSKGADVNECDFYGFTAFMEAAVYGKVKALKFLYKRGANVNLRRKTKEDQERLRKGGATALMDAAEKGHVEVLKILLDEMGADVNACDNMGRNALIHALLSSDDSDVEAITHLLLDHGADVNVRGERGKTPLILAVEKKHLGLVQRLLEQEHIEINDTDSDGKTALLLAVELKLKKIAELLCKRGASTDCGDLVMTARRNYDHSLVKVLLSHGAKEDFHPPAEDWKPQSSHWGAALKDLHRIYRPMIGKLKFFIDEKYKIADTSEGGIYLGFYEKQEVAVKTFCEGSPRAQREVSCLQSSRENSHLVTFYGSESHRGHLFVCVTLCEQTLEACLDVHRGEDVENEEDEFARNVLSSIFKAVQELHLSCGYTHQDLQPQNILIDSKKAAHLADFDKSIKWAGDPQEVKRDLEDLGRLVLYVVKKGSISFEDLKAQSNEEVVQLSPDEETKDLIHRLFHPGEHVRDCLSDLLGHPFFWTWESRYRTLRNVGNESDIKTRKSESEILRLLQPGPSEHSKSFDKWTTKINECVMKKMNKFYEKRGNFYQNTVGDLLKFIRNLGEHIDEEKHKKMKLKIGDPSLYFQKTFPDLVIYVYTKLQNTEYRKHFPQTHSPNKPQCDGAGGASGLASPGC
B2: Flag-MuRNase L—human 1–58 (enzyme, UniProt Q05823 1-58; Q05921 59-735)
chain: MESRDHNNPQEGPTSSSGRRAAVEDNHLLIKAVQNEDVDLVQQLLEGGANVNFQEEEGGWTPLHNAVQAGRVDIVNLLLSHGADPHRRKKNGATPFIIAGIQGDVKLLEILLSCGADVNECDENGFTAFMEAAERGNAEALRFLFAKGANVNLRRQTTKDKRRLKQGGATALMSAAEKGHLEVLRILLNDMKAEVDARDNMGRNALIRTLLNWDCENVEEITSILIQHGADVNVRGERGKTPLIAAVERKHTGLVQMLLSREGINIDARDNEGKTALLIAVDKQLKEIVQLLLEKGADKCDDLVWIARRNHDYHLVKLLLPYVANPDTDPPAGDWSPHSSRWGTALKSLHSMTRPMIGKLKIFIHDDYKIAGTSEGAVYLGIYDNREVAVKVFRENSPRGCKEVSCLRDCGDHSNLVAFYGREDDKGCLYVCVSLCEWTLEEFLRLPREEPVENGEDKFAHSILLSIFEGVQKLHLHGYSHQDLQPQNILIDSKKAVRLADFDQSIRWMGESQMVRRDLEDLGRLVLYVVMKGEIPFETLKTQNDEVLLTMSPDEETKDLIHCLFSPGENVKNCLVDLLGHPFFWTWENRYRTLRNVGNESDIKVRKCKSDLLRLLQHQTLEPPRSFDQWTSKIDKNVMDEMNHFYEKRKKNPYQDTVGDLLKFIRNIGEHINEEKKRGMKEILGDPSRYFQETFPDLVIYIYKKLKETEYRKHFPQPPPRLSVPEAVGPGGIQS
B3: Flag-HuRNase L—mouse 26–51 (enzyme, UniProt Q05823 1-25; Q05921 26-51; Q05823 52-741)
chain: MESRDHNNPQEGPTSSSGRRAAVEDDSSLIKAVQKGDVVRVQQLLEKGADANFQEEEGGWTPLHNAVQMSREDIVELLLRHGADPVLRKKNGATPFILAAIAGSVKLLKLFLSKGADVNECDFYGFTAFMEAAVYGKVKALKFLYKRGANVNLRRKTKEDQERLRKGGATALMDAAEKGHVEVLKILLDEMGADVNACDNMGRNALIHALLSSDDSDVEAITHLLLDHGADVNVRGERGKTPLILAVEKKHLGLVQRLLEQEHIEINDTDSDGKTALLLAVELKLKKIAELLCKRGASTDCGDLVMTARRNYDHSLVKVLLSHGAKEDFHPPAEDWKPQSSHWGAALKDLHRIYRPMIGKLKFFIDEKYKIADTSEGGIYLGFYEKQEVAVKTFCEGSPRAQREVSCLQSSRENSHLVTFYGSESHRGHLFVCVTLCEQTLEACLDVHRGEDVENEEDEFARNVLSSIFKAVQELHLSCGYTHQDLQPQNILIDSKKAAHLADFDKSIKWAGDPQEVKRDLEDLGRLVLYVVKKGSISFEDLKAQSNEEVVQLSPDEETKDLIHRLFHPGEHVRDCLSDLLGHPFFWTWESRYRTLRNVGNESDIKTRKSESEILRLLQPGPSEHSKSFDKWTTKINECVMKKMNKFYEKRGNFYQNTVGDLLKFIRNLGEHIDEEKHKKMKLKIGDPSLYFQKTFPDLVIYVYTKLQNTEYRKHFPQTHSPNKPQCDGAGGASGLASPGC
B4: Flag-MuRNase L—R80, Y81 (enzyme, UniProt Q05921 1-735)
chain: METPDYNTPQGGTPSAGSQRTVVEDDSSLIKAVQKGDVVRVQQLLEKGADANACEDTWGWTPLHNAVQAGRVDIVNLLLRYGADPHRRKKNGATPFIIAGIQGDVKLLEILLSCGADVNECDENGFTAFMEAAERGNAEALRFLFAKGANVNLRRQTTKDKRRLKQGGATALMSAAEKGHLEVLRILLNDMKAEVDARDNMGRNALIRTLLNWDCENVEEITSILIQHGADVNVRGERGKTPLIAAVERKHTGLVQMLLSREGINIDARDNEGKTALLIAVDKQLKEIVQLLLEKGADKCDDLVWIARRNHDYHLVKLLLPYVANPDTDPPAGDWSPHSSRWGTALKSLHSMTRPMIGKLKIFIHDDYKIAGTSEGAVYLGIYDNREVAVKVFRENSPRGCKEVSCLRDCGDHSNLVAFYGREDDKGCLYVCVSLCEWTLEEFLRLPREEPVENGEDKFAHSILLSIFEGVQKLHLHGYSHQDLQPQNILIDSKKAVRLADFDQSIRWMGESQMVRRDLEDLGRLVLYVVMKGEIPFETLKTQNDEVLLTMSPDEETKDLIHCLFSPGENVKNCLVDLLGHPFFWTWENRYRTLRNVGNESDIKVRKCKSDLLRLLQHQTLEPPRSFDQWTSKIDKNVMDEMNHFYEKRKKNPYQDTVGDLLKFIRNIGEHINEEKKRGMKEILGDPSRYFQETFPDLVIYIYKKLKETEYRKHFPQPPPRLSVPEAVGPGGIQS
B5: Flag-tagged mouse RNase L, wild type (Flag-MuRNase L WT) (enzyme, UniProt Q05921 1-735)
chain: METPDYNTPQGGTPSAGSQRTVVEDDSSLIKAVQKGDVVRVQQLLEKGADANACEDTWGWTPLHNAVQAGRVDIVNLLLSHGADPHRRKKNGATPFIIAGIQGDVKLLEILLSCGADVNECDENGFTAFMEAAERGNAEALRFLFAKGANVNLRRQTTKDKRRLKQGGATALMSAAEKGHLEVLRILLNDMKAEVDARDNMGRNALIRTLLNWDCENVEEITSILIQHGADVNVRGERGKTPLIAAVERKHTGLVQMLLSREGINIDARDNEGKTALLIAVDKQLKEIVQLLLEKGADKCDDLVWIARRNHDYHLVKLLLPYVANPDTDPPAGDWSPHSSRWGTALKSLHSMTRPMIGKLKIFIHDDYKIAGTSEGAVYLGIYDNREVAVKVFRENSPRGCKEVSCLRDCGDHSNLVAFYGREDDKGCLYVCVSLCEWTLEEFLRLPREEPVENGEDKFAHSILLSIFEGVQKLHLHGYSHQDLQPQNILIDSKKAVRLADFDQSIRWMGESQMVRRDLEDLGRLVLYVVMKGEIPFETLKTQNDEVLLTMSPDEETKDLIHCLFSPGENVKNCLVDLLGHPFFWTWENRYRTLRNVGNESDIKVRKCKSDLLRLLQHQTLEPPRSFDQWTSKIDKNVMDEMNHFYEKRKKNPYQDTVGDLLKFIRNIGEHINEEKKRGMKEILGDPSRYFQETFPDLVIYIYKKLKETEYRKHFPQPPPRLSVPEAVGPGGIQS
B6: purified recombinant human RNase L (enzyme, UniProt Q05823 21-719)
chain: AAVEDNHLLIKAVQNEDVDLVQQLLEGGANVNFQEEEGGWTPLHNAVQMSREDIVELLLRHGADPVLRKKNGATPFILAAIAGSVKLLKLFLSKGADVNECDFYGFTAFMEAAVYGKVKALKFLYKRGANVNLRRKTKEDQERLRKGGATALMDAAEKGHVEVLKILLDEMGADVNACDNMGRNALIHALLSSDDSDVEAITHLLLDHGADVNVRGERGKTPLILAVEKKHLGLVQRLLEQEHIEINDTDSDGKTALLLAVELKLKKIAELLCKRGASTDCGDLVMTARRNYDHSLVKVLLSHGAKEDFHPPAEDWKPQSSHWGAALKDLHRIYRPMIGKLKFFIDEKYKIADTSEGGIYLGFYEKQEVAVKTFCEGSPRAQREVSCLQSSRENSHLVTFYGSESHRGHLFVCVTLCEQTLEACLDVHRGEDVENEEDEFARNVLSSIFKAVQELHLSCGYTHQDLQPQNILIDSKKAAHLADFDKSIKWAGDPQEVKRDLEDLGRLVLYVVKKGSISFEDLKAQSNEEVVQLSPDEETKDLIHRLFHPGEHVRDCLSDLLGHPFFWTWESRYRTLRNVGNESDIKTRKSESEILRLLQPGPSEHSKSFDKWTTKINECVMKKMNKFYEKRGNFYQNTVGDLLKFIRNLGEHIDEEKHKKMKLKIGDPSLYFQKTFPDLVIYVYTKLQNTEYRKHFPQT

Assays:
[1] = molecular target: T1, C-terminally Flag-tagged mouse RNase L, wild type (RNase L-Flag) (mouse) (UniProt Q05921); test: cross-linking; lysates of 293T cells overexpressing RNase L-Flag with or without L* (HEPES 20 mM pH 7.5, NaCl 100 mM, NP40 0.5%, EDTA 2 mM); 2-5A added (0.25 to 8 μM ATP equivalent), 10 min at 37°C; 5 mM DSS for 30 min; anti-Flag immunoblot of monomers, dimers and oligomers
T1 sequence: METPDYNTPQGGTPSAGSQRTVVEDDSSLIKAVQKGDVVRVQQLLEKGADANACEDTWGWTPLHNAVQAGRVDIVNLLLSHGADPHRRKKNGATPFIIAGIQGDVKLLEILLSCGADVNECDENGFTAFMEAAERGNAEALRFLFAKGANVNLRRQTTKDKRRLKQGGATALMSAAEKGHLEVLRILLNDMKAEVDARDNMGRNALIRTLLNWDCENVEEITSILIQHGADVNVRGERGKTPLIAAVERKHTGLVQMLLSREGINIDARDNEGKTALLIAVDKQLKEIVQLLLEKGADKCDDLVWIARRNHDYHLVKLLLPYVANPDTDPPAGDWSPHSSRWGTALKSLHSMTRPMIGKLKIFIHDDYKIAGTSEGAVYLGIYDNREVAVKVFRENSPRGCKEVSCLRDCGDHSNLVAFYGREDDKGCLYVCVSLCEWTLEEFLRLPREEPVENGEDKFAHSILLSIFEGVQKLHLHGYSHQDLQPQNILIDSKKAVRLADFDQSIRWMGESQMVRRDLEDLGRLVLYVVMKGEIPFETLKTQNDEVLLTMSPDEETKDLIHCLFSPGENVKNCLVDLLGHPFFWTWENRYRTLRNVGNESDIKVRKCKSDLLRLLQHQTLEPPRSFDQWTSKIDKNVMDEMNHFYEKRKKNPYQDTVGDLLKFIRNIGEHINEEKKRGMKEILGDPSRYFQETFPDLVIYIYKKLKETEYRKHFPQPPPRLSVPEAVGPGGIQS

[2] = molecular target: HA-tagged L* protein of TMEV strain DA (HA-L*DA) (Theiler's murine encephalomyelitis virus, strain DA); test: co-IP; Flag-tagged RNase L constructs and N-terminally HA-tagged L* co-expressed in 293T cells; HA-L* immunoprecipitated from lysates with anti-HA antibody and protein A/G magnetic beads; immunoblot with anti-Flag and anti-HA
[3] = molecular target: HA-tagged L* protein of the rat TMEV strain RTV-1 (HA-L*_(RTV-1)) (rat TMEV strain RTV-1); test: as above
[4] = molecular target: (His)6-L* (purified recombinant L*DA) (Theiler's murine encephalomyelitis virus, strain DA); test: SPR; Biacore 3000; (His)6-L* immobilized on Ni-NTA chips, mouse or human RNase L injected; 10 μl/min, 3 min association, 5 min dissociation; 1:1 Langmuir model, global fitting; both purified

Row | Molecule | binding [2] | further results
1 | L* as overexpressed with RNase L-Flag in the dimerization assay (Theiler's murine encephalomyelitis virus) |  | binding [1]: binds
2 | B1 | binds | 
3 | B2 | no binding | 
4 | B3 | binds | 
5 | B4 |  | binding [3]: binds
6 | B5 | binds | 
7 | B6 |  | binding [4]: no binding
